Test results: paper PMC7820895
These are yes or no findings as the source states them, for the method shown. In cells and extracts the contact can be indirect. Some binding calls cover weakened binding; strength is not graded here. One block for each substance: values may come before it.

The chains behind the UniProt entries cited, without tags or fusion partners. Where a name states a change or a piece, a line headed by the entry shows the natural chain unless it says otherwise. Residues count along the entry.
UniProt P01031: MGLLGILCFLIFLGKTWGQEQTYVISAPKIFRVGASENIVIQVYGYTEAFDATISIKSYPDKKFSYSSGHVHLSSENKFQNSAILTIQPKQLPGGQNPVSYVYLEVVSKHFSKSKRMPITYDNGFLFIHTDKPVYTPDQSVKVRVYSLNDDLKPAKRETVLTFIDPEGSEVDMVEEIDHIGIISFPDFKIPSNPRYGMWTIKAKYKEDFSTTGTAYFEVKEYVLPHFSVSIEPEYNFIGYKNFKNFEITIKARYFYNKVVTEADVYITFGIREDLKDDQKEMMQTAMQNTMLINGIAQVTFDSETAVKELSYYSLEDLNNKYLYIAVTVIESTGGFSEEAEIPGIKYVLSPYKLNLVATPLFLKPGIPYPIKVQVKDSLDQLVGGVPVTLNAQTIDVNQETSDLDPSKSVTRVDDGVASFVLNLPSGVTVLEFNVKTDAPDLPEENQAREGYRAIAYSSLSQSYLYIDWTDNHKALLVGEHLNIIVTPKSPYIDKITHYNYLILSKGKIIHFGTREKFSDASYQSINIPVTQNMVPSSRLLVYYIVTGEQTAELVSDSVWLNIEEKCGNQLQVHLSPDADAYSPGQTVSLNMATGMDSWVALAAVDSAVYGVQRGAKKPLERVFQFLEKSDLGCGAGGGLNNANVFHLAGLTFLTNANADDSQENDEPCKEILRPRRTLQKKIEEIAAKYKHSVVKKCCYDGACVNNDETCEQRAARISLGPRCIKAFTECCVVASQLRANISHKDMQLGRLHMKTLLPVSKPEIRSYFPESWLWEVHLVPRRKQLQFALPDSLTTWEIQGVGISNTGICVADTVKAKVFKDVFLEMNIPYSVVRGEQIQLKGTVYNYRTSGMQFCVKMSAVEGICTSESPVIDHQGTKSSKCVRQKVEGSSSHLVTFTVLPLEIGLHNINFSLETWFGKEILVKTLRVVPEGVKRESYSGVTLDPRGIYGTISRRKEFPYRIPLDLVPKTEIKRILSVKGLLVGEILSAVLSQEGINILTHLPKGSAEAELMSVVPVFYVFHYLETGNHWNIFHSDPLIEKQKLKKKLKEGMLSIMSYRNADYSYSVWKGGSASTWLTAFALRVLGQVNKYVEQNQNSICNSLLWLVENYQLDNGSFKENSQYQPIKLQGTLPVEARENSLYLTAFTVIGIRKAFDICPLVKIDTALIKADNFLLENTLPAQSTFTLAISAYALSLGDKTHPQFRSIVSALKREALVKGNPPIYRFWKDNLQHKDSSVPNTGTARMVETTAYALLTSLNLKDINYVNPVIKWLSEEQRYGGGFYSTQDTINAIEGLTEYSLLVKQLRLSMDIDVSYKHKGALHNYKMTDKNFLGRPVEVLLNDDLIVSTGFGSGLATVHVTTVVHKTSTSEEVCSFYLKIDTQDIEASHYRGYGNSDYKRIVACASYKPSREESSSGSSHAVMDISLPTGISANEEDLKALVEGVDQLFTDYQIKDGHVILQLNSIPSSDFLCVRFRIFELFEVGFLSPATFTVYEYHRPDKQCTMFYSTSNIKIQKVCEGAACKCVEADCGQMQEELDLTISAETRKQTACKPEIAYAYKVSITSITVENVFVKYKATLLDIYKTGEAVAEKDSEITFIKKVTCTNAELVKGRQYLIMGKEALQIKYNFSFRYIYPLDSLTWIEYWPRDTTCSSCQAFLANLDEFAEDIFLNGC
UniProt P10643, residues 23-843: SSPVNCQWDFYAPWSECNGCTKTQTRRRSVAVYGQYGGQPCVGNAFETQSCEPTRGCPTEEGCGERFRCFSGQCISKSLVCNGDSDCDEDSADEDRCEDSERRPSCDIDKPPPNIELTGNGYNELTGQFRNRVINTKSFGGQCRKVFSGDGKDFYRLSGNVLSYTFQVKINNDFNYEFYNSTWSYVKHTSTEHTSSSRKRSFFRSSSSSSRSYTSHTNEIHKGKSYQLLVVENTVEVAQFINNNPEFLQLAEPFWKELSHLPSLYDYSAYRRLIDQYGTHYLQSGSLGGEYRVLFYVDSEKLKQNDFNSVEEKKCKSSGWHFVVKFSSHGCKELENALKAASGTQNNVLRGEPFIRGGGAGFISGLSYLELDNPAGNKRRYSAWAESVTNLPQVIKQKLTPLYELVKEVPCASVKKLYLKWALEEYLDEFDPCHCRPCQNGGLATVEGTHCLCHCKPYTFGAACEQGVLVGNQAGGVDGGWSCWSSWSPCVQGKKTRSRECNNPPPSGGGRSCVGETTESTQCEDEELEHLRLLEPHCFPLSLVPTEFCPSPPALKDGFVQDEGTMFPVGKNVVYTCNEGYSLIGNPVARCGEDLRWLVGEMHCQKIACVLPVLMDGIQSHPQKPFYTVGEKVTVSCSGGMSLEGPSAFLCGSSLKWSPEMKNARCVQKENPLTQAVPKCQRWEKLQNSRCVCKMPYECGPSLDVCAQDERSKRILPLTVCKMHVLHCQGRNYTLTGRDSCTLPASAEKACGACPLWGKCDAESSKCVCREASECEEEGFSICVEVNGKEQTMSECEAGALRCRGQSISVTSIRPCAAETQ
UniProt P07357: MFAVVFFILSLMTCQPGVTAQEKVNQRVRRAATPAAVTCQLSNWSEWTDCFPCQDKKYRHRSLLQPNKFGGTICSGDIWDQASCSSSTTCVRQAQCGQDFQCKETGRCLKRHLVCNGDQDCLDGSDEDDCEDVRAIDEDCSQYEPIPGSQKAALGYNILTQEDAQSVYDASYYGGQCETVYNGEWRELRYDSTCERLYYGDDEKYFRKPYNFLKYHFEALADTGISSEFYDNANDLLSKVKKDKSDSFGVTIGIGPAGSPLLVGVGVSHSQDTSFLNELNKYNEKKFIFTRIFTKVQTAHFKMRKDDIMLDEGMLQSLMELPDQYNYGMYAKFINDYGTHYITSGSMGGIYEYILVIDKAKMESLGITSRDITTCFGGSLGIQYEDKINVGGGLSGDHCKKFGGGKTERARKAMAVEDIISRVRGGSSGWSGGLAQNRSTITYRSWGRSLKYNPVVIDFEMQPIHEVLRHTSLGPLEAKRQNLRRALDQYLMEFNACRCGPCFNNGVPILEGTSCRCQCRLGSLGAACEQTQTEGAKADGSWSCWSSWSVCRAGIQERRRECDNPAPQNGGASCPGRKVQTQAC
UniProt P07358: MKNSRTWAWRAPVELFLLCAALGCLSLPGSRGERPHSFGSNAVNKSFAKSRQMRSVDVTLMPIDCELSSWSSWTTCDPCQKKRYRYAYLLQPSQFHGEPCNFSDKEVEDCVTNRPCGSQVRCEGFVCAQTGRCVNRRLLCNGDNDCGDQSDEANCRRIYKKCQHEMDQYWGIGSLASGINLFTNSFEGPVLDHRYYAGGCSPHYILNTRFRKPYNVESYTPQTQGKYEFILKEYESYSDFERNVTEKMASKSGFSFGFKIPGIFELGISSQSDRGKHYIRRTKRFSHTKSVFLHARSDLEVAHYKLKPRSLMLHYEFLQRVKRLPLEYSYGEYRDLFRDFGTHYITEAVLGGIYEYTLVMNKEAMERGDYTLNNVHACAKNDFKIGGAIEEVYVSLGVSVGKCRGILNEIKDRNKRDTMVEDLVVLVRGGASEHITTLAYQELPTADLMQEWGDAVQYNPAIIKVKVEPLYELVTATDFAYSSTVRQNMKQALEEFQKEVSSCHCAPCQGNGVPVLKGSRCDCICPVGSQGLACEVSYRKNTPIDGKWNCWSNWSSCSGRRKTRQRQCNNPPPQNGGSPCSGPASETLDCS
UniProt P07360: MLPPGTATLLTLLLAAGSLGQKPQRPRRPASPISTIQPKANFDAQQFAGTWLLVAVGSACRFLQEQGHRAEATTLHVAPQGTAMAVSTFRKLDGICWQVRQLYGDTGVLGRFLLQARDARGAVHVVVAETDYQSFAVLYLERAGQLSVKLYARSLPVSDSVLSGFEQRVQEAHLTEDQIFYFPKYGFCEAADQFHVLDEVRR
UniProt P13671, residues 22-934: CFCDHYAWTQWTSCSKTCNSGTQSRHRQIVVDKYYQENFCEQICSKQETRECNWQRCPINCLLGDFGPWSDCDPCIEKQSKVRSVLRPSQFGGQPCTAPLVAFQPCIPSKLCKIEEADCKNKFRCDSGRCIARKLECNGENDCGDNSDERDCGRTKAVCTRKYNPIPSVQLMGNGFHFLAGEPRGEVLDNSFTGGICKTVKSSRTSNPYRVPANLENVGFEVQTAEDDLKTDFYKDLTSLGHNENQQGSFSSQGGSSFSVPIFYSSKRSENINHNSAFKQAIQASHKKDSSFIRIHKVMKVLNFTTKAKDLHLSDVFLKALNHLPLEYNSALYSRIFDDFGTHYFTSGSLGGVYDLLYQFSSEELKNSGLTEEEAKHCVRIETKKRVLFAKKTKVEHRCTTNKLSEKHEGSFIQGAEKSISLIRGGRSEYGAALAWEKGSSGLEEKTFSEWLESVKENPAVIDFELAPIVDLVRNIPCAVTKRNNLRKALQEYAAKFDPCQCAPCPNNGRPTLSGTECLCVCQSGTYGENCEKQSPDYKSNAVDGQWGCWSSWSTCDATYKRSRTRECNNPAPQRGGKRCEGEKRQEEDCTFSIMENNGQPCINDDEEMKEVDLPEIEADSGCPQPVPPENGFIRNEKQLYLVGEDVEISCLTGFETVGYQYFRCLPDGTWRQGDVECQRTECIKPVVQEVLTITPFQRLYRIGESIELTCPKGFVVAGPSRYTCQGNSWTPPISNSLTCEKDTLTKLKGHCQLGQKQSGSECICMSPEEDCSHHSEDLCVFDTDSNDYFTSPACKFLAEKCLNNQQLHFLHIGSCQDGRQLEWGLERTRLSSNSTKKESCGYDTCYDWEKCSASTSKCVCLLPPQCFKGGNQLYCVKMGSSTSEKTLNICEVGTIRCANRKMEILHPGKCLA

Tests used:
Test in all cases: cross-linking
[1] = target: complement component C5b (human) (UniProt P01031)
[2] = target: complement component C7 (human) (UniProt P10643)
[3] = target: complement component C8 (α, β, and γ) (human) (UniProt P07357+P07358+P07360)
[4] = target: complement component C9 (human) (UniProt P02748)
[5] = target: complement component C6 (human) (UniProt P13671)

binding [1]: binds
Substance: complement component C6 (from UniProt P13671 22-934)

binding [2]: binds
Substance: complement component C8 (α, β, and γ) (from UniProt P07357 31-584; P07358 55-591; P07360 21-202) (complex)

binding [3]: binds | binding [4]: binds
Substance: complement component C9 (from UniProt P02748 22-559)

binding [5]: binds
Substance: complement component C7 (from UniProt P10643 23-843)
